These results are taken from paper PMC4066584.

Protein sequences, listed by entry. Tags and fused reporters are not part of them. Lines headed by an entry give the natural chain unless they say otherwise; changes in a name come on top.
UniProt P0AFB8: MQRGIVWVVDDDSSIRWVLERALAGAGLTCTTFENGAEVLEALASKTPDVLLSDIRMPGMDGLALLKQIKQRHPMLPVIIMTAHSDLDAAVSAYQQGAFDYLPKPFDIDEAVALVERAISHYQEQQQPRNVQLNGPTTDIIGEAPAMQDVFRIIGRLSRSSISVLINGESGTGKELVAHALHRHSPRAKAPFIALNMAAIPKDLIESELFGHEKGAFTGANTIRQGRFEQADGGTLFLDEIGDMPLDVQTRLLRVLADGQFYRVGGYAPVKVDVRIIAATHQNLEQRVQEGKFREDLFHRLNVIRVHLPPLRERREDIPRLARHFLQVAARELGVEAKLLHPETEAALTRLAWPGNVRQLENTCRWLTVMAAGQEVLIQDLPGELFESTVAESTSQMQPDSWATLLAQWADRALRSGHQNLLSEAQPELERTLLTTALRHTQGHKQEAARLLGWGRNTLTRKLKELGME

Construct, isoform or probe ends are uncertain for at least one entry. A negative result means that nothing was seen under these conditions.

For the first series, the target named is NtrC-P (NtrC phosphorylated in situ with carbamyl phosphate) (Escherichia coli (ASKA(-) clone JW3839)) (UniProt P0AFB8). In words: EMSA. As to conditions: 10 mM carbamyl phosphate, EMSA: 40 mM Tris-HCl pH 8.0, 100 mM NaCl, 10 mM MgCl2, 1 mM DTT, 0-1000 nM NtrC, 5 nM 32P probe, 37 C, 4.5% native PAGE at 37 C, recombinant protein, protein details: 6xHis, label: 32P. In general terms: Mobility shift assays separate free from complexed probe on a gel.
As for “CACAGCAACTTCAGATGGGGTTTCGCAAAGCGGGCTCCAGTGACATTGTCGACGTCAAACAATGCCCCATTTTAGCGCCCCAACTTGAAGCATTGCTGCCCAAAGTCAGGGCATGTCTGGGCAGCTTACAAGCTATGCGCCATCTTGGTCATGTTGAACTGGTACAGGCAACCAGCGGCACGCTGATGATTTTGCGCCATACCGCACCGCTAAGTTCGGCAGATCGCGAAAAACTGGAACGCTTTTCGCATTCTGAAGGCCTGGATCTGTATCTCGCCCCCGATAGTGAGATACTCGAAACCGTCTCTGGTGAGATGCCCTGGTATGACTCAAACG (double strand) [relA probe]”, the binding result was “binds”.
With “GTCCCTTTGTGATCGCTTTCACGGAGCATAAAAAGGGTTATCCAAAGGTCATTGCACCAACATGGTGCTTAATGTTTCCATTGAAGCACTATATTGGTGCAACATTCACATCGTGGTGCAGCCCTTTTGCACGATGGTGCGCATGATAACGCCTTTTAGGGGCAATTTAAAAGTTGGCACAGATTTCGCTTTATCTTTTTTACGGCGACACGGCCAAAATAATTGCAGATTTCGTTACCACGACGACCATGACCAATCCAGGAGAGTTAAAGTATGTCCGCTGAACACGTACTGACGATGCTGAACGAGCACGAAGTGAAGTTTGTTGATTTGCGCTTCACCGA (double strand) [glnA probe]”, the binding result is listed as “binds”.

The same series, now with this note: 10 mM carbamyl phosphate, up to 1000 nM NtrC-P, EMSA: 40 mM Tris-HCl pH 8.0, 100 mM NaCl, 10 mM MgCl2, 1 mM DTT, 0-1000 nM NtrC, 5 nM 32P probe, 37 C, 4.5% native PAGE at 37 C, recombinant protein, protein details: 6xHis, label: 32P.
For “ACGAATACCTGCTGCTTGTGCAAGTTTTGTTTTTGAACCGAAATACAAAAGAGCGTCAGTTTTAAGCATTTAAAACACCTTTATTGTTAGTCATAACTAACAAGATAGATGTTAACAAAAACATAGTCAATACGATTTAGCATTAGCTAACTATGGAAACAAAAAATTTAACTATCGGCGAACGCATCAGGTATCGTCGGAAAAACCTCAAACACACCCAAAGGTCTCTTGCTAAAGCCCTGAAAATCTCCCATGTGTCTGTATCACAATGGGAACGGGGTGATAGTGAACCTACAGGGAAGAACCTTTTTGCCCTCAGTAAAGTATTGCAATGCTCACCAACATGG (double strand) [dicC probe]”, the binding result is “no binding”.
Same read-out and setting: in the case of “CTTGCTGCGCTTCGTTGATCAGCGCATCGGCAATTTTGCCGGTGTCCATTTTTAGTTCACCGTTACGAATCGCCAGTTTTAACGCTTCGACACGTTCAAGATTGATATCACTGCTGCCGGGTTGCATCAGTTTTGCTTGCGCGTCGCTTAACGTCACACTGGTGCTGGTGGAGGCGGTTGTTTTTGCCGCCCGGCTGTTCGTTACCGGCGCGTCAGTGGTTTCGCGCGGTTGAACGGTGCTTACAGGCTTCAGAGGCGAAGTGCGATCAATACTCATGGTTTATTCCTCATTGAGGGCGCTTTTATCATGTG (double strand) [flgN probe (flgMN)]” it was “no binding”; in that of “TTAGTACCGGTAGTGGCCTGTACCGTCAGTTCACGCACACGCTGTAAGTTGTTGTTGATTTCGGACAGCGCGCCTTCGGTGGTCTGCGCAACGGAGATACCGTCGTTGGCGTTACGGGCCGCCTGAGTCAGGCCTTTAATGTTAGAGGTGAAACGGTTAGCAATCGCCTGACCCGCTGCGTCATCCTTCGCGCTGTTAATACGCAAGCCAGAAGACAGACGCTCGATAGAACTCGACAGCGCAGACTGGTTCTTGTTGATATTATTTTGAGTGATCAGCGAGAGGCTGTTGGTATTAATGACTTGTGCCATGATTCGTTATCCTATATTGCAAGTCGTTGATTACGTATTGGGTTTCCA (double strand) [fliC probe]”, “no binding”.
In the case of “TTGAACAAGGTCGCATCACCGAAAAAACTAACCAAAACTTTGAATGACACTTTTCGGTTTACTGTGGTAGAGTAACCGTGAAGACAAAATTTCTCTGAGATGTTCGCAAGCGGGCCAGTCCCCTGAGCCGATATTTCATACCACAAGAATGTGGCGCTCCGCGGTTGGTGAGCATGCTCGGTCCGTCCGAGAAGCCTTAAAACTGCGACGACACATTCACCTTGAACCAAGGGTTCAAGGGTTACAGCCTGCGGCGGCATCTCGGAGATTCCCTTCTTATCTGGCACCAGCCATGACGCAACTACCAGAACTCCCACTGACATTATCCCGACAAGAAATCCGCAAA (double strand) [ssrS probe]”, the binding result is “no binding”.
